Assay results reported in patent publication US20250172543A1, “HIGH DENSITY 3D HEPATOCYTE SPHEROID PLATFORM FOR DRUG ADME STUDIES” (Discovery Life Sciences, LLC, priority 2018, published 2025).

Assays:
[1] = tested on: PHHs grown in suspension format; experiment: Clearance measurement with PHHs grown in suspension format; conditions: FIGS. 8A-I
[2] = actual in vivo clearance for comparison; cited from earlier work
[3] = tested on: 3D primary human hepatocyte (PHH) high density spheroids; experiment: 3D PHH high density spheroid drug clearance assay; type: in vitro ADME; conditions: 0.1 μM substrate, 6-well spheroid insert, in vivo hepatic clearance predicted from in vitro Clint by well stirred model

Nc1nc2ccc(OC(F)(F)F)cc2s1 [Riluzole]
Measurability of clearance in suspension hepatocytes [1]: unable to measure | In Vivo CLnonrenal [2]: 2.05 | Predicted CLh, 3D HD Spheroids [3]: 1.62
